Data taken from patent US20260215420A1 (Solasta Bio Limited, priority 2022, published 2026).

Test: general procedure: Fmoc solid-phase peptide synthesis; Tentagel S RAM (0.22 mmol/g); Rink Amide ProTide LL (0.18 mmol/g) for SB-P-101; DIC/Oxyma
Settings: whole synthesis
[1] = scale of the general procedure 0.1 mmol, 0.2 mmol or 0.5 mmol

| Substance | final purity (method not given) (scale 0.1 mmol) | isolated yield (scale 0.1 mmol) | final purity (method not given) [1] | isolated yield [1] |
| --- | --- | --- | --- | --- |
| H-KVKFSAWG-NH2 | Purity=91% | Yield=42% |  |  |
| H-PAFSSWG-NH2 |  |  | Purity=91% | Yield=41% |
| H-RQKTVFSSWG-NH2 |  |  | Purity=90% | Yield=41% |
